In the supplement of paper PMC10849652:
This is one part of the list. Residues, ends and D or L forms follow the SMILES beside them. *: point of attachment. Cbz = O=C(OCc1ccccc1)*

By UniProt entry, the sequences of proteins in these tests, tags left out. Where a name states a change or a piece, a line headed by the entry shows the natural chain unless it says otherwise.
UniProt P25685, whole entry, looked up: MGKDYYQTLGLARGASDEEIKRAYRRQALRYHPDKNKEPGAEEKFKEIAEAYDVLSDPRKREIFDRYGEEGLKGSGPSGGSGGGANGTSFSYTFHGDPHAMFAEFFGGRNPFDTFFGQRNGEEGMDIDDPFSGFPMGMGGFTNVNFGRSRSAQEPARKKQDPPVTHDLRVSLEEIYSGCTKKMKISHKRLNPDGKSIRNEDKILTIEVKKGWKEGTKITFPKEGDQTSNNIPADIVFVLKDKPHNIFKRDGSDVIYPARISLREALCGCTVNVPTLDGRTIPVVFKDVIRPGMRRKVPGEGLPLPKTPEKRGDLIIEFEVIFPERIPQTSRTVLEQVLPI
UniProt Q9BQ95: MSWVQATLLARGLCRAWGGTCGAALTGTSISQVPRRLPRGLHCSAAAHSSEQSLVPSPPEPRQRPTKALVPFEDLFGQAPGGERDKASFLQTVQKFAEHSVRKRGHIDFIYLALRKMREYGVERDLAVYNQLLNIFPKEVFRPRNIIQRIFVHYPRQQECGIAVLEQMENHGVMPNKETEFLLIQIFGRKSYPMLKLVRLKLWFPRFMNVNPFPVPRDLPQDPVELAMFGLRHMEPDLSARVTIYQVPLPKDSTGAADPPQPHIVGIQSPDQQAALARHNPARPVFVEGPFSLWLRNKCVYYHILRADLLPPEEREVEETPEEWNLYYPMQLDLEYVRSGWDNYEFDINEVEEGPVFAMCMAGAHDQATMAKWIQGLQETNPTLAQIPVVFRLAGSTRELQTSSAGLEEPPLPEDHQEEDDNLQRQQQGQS
UniProt Q96F86: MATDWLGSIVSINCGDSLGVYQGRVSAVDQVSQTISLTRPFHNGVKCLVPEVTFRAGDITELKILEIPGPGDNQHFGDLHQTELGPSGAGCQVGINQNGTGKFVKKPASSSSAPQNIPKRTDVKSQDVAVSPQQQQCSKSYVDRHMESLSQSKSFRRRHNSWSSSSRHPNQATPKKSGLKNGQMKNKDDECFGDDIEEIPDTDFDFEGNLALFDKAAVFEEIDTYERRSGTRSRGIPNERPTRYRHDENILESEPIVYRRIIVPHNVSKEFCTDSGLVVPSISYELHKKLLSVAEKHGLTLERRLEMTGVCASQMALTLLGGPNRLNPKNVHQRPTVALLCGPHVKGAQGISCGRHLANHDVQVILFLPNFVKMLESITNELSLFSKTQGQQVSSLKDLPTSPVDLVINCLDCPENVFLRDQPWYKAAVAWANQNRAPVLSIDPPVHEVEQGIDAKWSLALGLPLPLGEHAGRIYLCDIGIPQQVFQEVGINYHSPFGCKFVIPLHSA
UniProt Q13011: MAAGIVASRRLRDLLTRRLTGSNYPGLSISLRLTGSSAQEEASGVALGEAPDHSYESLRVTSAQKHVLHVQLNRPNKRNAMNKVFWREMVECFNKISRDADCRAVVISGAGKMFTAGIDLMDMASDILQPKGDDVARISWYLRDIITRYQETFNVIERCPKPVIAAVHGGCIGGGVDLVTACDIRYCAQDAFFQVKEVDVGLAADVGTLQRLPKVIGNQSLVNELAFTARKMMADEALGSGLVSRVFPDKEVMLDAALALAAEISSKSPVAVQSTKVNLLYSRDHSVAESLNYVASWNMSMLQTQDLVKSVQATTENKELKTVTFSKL
UniProt P23919: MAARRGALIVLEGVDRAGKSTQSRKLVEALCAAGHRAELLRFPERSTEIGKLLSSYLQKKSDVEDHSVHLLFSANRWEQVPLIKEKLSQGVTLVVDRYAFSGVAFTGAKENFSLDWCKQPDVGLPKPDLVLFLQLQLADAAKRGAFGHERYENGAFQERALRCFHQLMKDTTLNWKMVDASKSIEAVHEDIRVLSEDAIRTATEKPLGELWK
UniProt P50570: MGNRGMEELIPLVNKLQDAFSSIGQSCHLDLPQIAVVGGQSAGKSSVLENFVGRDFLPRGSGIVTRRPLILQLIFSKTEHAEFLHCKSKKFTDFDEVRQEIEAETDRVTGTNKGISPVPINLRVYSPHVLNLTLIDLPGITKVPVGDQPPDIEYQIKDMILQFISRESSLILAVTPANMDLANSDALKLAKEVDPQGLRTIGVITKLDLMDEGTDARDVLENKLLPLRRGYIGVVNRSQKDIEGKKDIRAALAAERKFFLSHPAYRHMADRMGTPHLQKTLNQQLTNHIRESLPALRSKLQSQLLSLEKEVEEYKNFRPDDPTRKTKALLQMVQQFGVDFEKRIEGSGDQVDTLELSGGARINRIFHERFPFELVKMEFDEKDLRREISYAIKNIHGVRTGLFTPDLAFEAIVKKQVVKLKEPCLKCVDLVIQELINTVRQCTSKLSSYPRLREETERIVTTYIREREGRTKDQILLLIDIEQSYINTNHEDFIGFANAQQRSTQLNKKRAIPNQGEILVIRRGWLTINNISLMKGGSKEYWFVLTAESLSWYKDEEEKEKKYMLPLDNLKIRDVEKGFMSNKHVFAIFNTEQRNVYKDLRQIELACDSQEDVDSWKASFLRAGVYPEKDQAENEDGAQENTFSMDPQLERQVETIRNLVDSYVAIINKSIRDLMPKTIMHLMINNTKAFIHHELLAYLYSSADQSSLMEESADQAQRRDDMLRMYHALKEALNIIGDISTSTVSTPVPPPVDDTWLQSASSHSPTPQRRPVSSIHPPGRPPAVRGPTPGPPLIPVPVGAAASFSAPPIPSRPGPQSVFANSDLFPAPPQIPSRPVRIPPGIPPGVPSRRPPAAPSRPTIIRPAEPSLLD
UniProt Q8WXX5: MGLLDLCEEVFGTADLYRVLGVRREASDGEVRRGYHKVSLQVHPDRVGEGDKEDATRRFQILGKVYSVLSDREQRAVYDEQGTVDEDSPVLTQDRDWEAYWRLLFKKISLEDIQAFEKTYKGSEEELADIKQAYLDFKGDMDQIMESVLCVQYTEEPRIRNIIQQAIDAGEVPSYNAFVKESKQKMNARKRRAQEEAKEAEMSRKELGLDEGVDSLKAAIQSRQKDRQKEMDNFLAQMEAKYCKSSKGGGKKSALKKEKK
UniProt Q5F1R6: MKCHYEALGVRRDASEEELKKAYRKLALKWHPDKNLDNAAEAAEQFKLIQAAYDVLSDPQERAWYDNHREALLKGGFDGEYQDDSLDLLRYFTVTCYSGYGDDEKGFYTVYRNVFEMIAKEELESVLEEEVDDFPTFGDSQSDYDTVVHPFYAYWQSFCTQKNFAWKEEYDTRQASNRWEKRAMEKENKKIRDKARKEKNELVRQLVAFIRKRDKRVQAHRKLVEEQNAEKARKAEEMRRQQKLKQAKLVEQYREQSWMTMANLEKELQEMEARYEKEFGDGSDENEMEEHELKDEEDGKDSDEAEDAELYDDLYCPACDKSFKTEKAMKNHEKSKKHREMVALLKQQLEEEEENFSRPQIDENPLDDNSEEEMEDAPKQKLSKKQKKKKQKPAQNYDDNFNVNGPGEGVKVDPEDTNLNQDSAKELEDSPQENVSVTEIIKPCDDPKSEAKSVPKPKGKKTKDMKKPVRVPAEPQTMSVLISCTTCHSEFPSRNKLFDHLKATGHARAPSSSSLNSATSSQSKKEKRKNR
UniProt O75521: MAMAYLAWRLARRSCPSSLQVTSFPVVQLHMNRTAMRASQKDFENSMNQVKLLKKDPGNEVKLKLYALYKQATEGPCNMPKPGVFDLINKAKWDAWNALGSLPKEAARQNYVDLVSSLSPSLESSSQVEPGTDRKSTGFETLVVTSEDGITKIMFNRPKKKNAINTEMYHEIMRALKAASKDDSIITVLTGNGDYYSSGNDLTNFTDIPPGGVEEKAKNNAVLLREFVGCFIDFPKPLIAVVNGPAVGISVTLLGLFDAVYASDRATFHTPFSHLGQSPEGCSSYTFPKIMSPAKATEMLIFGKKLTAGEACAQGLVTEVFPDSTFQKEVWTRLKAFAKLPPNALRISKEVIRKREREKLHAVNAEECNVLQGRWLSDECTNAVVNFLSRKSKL
UniProt Q8N5C7: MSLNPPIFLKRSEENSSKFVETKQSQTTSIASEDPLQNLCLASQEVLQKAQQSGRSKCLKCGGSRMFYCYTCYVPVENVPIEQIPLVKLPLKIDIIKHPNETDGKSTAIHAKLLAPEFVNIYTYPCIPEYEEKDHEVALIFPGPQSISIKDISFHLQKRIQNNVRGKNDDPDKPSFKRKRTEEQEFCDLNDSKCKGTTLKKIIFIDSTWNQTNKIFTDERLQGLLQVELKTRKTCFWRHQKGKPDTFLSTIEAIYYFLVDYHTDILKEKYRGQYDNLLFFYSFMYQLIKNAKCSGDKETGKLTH
UniProt Q9BV94: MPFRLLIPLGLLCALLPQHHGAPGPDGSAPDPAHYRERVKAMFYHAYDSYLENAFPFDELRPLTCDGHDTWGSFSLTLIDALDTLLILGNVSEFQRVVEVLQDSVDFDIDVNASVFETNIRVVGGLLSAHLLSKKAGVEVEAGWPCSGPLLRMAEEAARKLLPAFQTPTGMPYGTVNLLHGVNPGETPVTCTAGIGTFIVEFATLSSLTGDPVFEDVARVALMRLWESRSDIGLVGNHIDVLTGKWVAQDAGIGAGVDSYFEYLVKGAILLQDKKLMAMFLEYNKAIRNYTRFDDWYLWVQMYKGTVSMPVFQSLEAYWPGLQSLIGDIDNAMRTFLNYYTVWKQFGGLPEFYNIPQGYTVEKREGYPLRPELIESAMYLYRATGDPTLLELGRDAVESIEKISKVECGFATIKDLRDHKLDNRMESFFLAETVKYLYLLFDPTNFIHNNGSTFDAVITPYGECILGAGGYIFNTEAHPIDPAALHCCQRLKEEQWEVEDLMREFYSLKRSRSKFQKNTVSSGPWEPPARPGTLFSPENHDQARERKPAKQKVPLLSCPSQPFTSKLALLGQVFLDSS
UniProt Q5QJE6: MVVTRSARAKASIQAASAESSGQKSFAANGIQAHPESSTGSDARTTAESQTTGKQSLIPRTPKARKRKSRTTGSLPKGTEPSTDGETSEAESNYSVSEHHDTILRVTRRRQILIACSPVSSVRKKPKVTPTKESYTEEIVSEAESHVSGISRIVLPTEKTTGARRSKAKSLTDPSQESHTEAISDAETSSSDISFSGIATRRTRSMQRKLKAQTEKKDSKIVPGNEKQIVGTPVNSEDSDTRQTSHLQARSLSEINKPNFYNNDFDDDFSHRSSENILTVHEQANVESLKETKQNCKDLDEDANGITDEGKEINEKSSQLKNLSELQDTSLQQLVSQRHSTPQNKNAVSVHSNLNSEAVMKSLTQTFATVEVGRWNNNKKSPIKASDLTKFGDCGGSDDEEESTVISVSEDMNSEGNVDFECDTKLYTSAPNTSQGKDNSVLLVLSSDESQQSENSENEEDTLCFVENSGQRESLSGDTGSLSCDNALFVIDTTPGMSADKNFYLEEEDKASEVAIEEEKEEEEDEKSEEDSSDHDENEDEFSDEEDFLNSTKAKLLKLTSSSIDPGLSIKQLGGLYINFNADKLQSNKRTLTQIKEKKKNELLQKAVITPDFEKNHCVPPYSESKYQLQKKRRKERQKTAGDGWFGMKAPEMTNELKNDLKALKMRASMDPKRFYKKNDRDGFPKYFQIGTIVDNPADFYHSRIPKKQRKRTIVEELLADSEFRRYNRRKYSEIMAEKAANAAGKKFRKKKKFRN
UniProt P55039: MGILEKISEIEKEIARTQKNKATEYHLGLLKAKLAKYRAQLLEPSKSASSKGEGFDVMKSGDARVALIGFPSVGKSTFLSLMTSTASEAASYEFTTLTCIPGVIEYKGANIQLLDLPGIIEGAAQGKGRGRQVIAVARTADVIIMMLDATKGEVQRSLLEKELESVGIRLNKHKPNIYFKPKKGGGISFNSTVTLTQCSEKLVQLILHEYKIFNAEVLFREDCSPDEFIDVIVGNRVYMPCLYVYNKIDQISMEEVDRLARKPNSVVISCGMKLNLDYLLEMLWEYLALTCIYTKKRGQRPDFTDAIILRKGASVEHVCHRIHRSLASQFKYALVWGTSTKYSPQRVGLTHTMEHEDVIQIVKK
UniProt Q16254: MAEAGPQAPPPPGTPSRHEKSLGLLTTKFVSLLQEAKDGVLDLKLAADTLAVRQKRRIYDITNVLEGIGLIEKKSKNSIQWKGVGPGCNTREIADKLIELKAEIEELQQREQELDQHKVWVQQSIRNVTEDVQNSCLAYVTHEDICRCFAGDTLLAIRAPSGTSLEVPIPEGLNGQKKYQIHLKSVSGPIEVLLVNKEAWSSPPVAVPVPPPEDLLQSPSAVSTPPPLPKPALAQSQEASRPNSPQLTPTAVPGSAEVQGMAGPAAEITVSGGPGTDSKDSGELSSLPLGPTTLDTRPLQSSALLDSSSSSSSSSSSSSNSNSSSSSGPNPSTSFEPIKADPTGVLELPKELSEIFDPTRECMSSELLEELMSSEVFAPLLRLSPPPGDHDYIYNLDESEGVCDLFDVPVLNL
UniProt Q99848: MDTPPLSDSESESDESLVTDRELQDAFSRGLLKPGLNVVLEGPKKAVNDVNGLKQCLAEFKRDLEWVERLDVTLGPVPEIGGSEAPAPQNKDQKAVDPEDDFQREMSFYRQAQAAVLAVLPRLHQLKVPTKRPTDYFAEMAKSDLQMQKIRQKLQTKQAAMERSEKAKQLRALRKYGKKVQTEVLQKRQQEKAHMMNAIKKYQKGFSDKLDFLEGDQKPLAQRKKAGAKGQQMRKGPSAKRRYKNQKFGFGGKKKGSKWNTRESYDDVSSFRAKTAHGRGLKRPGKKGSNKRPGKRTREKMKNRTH

Experiments:
Assay in all cases: log2 fold change, soluble protein after heating vs DMSO (PISA); higher = thermal stabilisation; K562 cells, 10 uM, 30 min; active = over 0.2 and 3.5 SD of the protein, either way, in both replicates (recomputed)
IRAK-1-4 Inhibitor I = compound: C1COCCN1CCN2C3=CC=CC=C3N=C2NC(=O)C4=CC(=CC=C4)[N+](=O)[O-] [IRAK-1-4 Inhibitor I]
Outline: (§1)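 Values are thermal stability changes relative to control samples and are taken from duplicates. They are stated as log2 fold changes. Before quantification by TMTpro 16plex LC-MS/MS with equalised channel sums, K562 cells at 2×10^6 cells/mL were treated with 10 μM compound for 30 min, heated in aliquots for 3 min across 48°C-58°C, pooled, extracted in PBS with 0.5% NP-40 at 4°C, and centrifuged at 21,000xg for 90 min to give the soluble supernatant.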

ibrutinib = compound: C=CC(=O)N1CCC[C@@H](n2nc(-c3ccc(Oc4ccccc4)cc3)c3c(N)ncnc32)C1 [ibrutinib]
Outline: as §1

[1] = compound: CC(=O)c1cnc2ccc(-c3cc(Cl)c(O)c(Cl)c3)nc2c1N[C@H]1CC[C@H](CN(C)C)CC1
Outline: as §1

ralimetinib = compound: CC(C)(C)Cn1c(N)nc2ccc(-c3[nH]c(C(C)(C)C)nc3-c3ccc(F)cc3)nc21 [ralimetinib]
Outline: as §1

[2] = compound: CC(C)(O)CC(=O)NCCn1ccc2ncnc(Nc3ccc(Oc4cccc(C(F)(F)F)c4)c(Cl)c3)c21
Outline: as §1

[3] = compound: CC(C)C1=C2N=C(C=C(N2N=C1)NCC3=CC=CC=C3)NCCCCCCN
Outline: as §1

[4] = compound: CC(C)C[C@@H](C=O)NC(=O)[C@H](CC(C)C)NC(=O)[C@H](CC(C)C)NC(=O)OCc1ccccc1
Outline: as §1

pinometostat = compound: CC(C)N(C[C@H]1O[C@@H](n2cnc3c(N)ncnc32)[C@H](O)[C@@H]1O)[C@H]1C[C@@H](CCc2nc3cc(C(C)(C)C)ccc3[nH]2)C1 [pinometostat]
Outline: as §1

[5] = compound: CC1=C(C2=C(C=C1)C(=O)C3=CC=CC=C3N2CCCN)C
Outline: as §1

[6] = compound: CC1=C(C=C(C=C1)NC(=O)C2=CC(=CC=C2)C(C)(C)C#N)NC3=CC4=C(C=C3)N=CN(C4=O)C
Outline: as §1

[7] = compound: CC1=C(C=C(C=C1)NC(=O)C2=CC(=CC=C2)N(C)C)NC(=O)C3=CC=C(C=C3)O
Outline: as §1

[8] = compound: CC1=CC=C(C=C1)SC2=C3C=C(SC3=CN=C2)C(=O)N
Outline: as §1

[9] = compound: CC1=NC(=CC=C1)C2=C(N=C(N2)C(C)(C)C)C3=CC4=NC=CN=C4C=C3
Outline: as §1

Nexturastat A = compound: CCCCN(Cc1ccc(C(=O)NO)cc1)C(=O)Nc1ccccc1 [Nexturastat A]
Outline: as §1

vemurafenib = compound: CCCS(=O)(=O)Nc1ccc(F)c(C(=O)c2c[nH]c3ncc(-c4ccc(Cl)cc4)cc23)c1F [vemurafenib]
Outline: as §1

[10] = compound: CCCS(=O)(=O)Nc1ccc(F)c(C(=O)c2c[nH]c3ncc(Cl)cc23)c1F
Outline: as §1

[11] = compound: CCCc1cc(C)[nH]c(=O)c1CNC(=O)c1cc(-c2ccnc(N3CCN(C)CC3)c2)cc2c1cnn2C(C)C
Outline: as §1

givinostat = compound: CCN(CC)Cc1ccc2cc(COC(=O)Nc3ccc(C(=O)NO)cc3)ccc2c1 [givinostat]
Outline: as §1

barasertib = compound: CCN(CCCOc1ccc2c(Nc3cc(CC(=O)Nc4cccc(F)c4)[nH]n3)ncnc2c1)CCOP(=O)(O)O [barasertib]
Outline: as §1

[12] = compound: CC1=C(C(CC(=O)N1)C2=CC=C(C=C2)C(F)(F)F)C(=O)NC3=C(C=C4C(=C3)C=NN4)F
Outline: as §1

| Target | log2 fold change (IRAK-1-4 Inhibitor I) | log2 fold change (ibrutinib) | log2 fold change [1] | log2 fold change (ralimetinib) | log2 fold change [2] | log2 fold change [3] | log2 fold change [4] | log2 fold change (pinometostat) | log2 fold change [5] | log2 fold change [6] | log2 fold change [7] | log2 fold change [8] | log2 fold change [9] | log2 fold change (Nexturastat A) | log2 fold change (vemurafenib) | log2 fold change [10] | log2 fold change [11] | log2 fold change (givinostat) | log2 fold change (barasertib) | log2 fold change [12] |
| --- | --- | --- | --- | --- | --- | --- | --- | --- | --- | --- | --- | --- | --- | --- | --- | --- | --- | --- | --- | --- |
| DNAJB1 (UniProt P25685) | inactive: -0.059 | inactive: -0.011 | inactive: -0.017 | inactive: 0 | inactive: -0.012 | inactive: -0.015 | inactive: -0.065 | inactive: -0.086 | inactive: 0.022 | inactive: 0.015 | inactive: -0.045 | inactive: -0.003 | inactive: 0.086 | inactive: -0.03 | inactive: 0.009 | inactive: 0.028 | inactive: -0.051 | inactive: 0.024 | inactive: 0.024 | – |
| ECSIT (UniProt Q9BQ95) | inactive: 0.067 | inactive: 0.061 | inactive: 0.001 | inactive: -0.019 | inactive: 0.05 | inactive: 0.012 | inactive: 0.018 | inactive: -0.029 | inactive: 0.007 | inactive: -0.029 | inactive: -0.01 | inactive: -0.058 | inactive: 0.021 | inactive: -0.023 | inactive: 0.01 | inactive: -0.047 | inactive: -0.055 | inactive: -0.011 | inactive: -0.003 | inactive: 0 |
| EDC3 (UniProt Q96F86) | inactive: -0.029 | inactive: -0.082 | active: -0.643 | inactive: 0.013 | inactive: -0.117 | inactive: -0.223 | inactive: 0.019 | inactive: 0.011 | inactive: -0.049 | inactive: -0.046 | inactive: 0.085 | inactive: 0.021 | inactive: 0.037 | inactive: 0.088 | inactive: 0.046 | inactive: 0.008 | inactive: 0.1 | inactive: 0.049 | inactive: 0.055 | – |
| ECH1 (UniProt Q13011) | inactive: 0.056 | inactive: -0.003 | inactive: -0.058 | inactive: 0.087 | inactive: -0.112 | inactive: -0.164 | inactive: -0.033 | inactive: 0.003 | inactive: 0.076 | inactive: 0.005 | inactive: -0.027 | inactive: 0.044 | inactive: 0.014 | inactive: -0.032 | inactive: 0.012 | inactive: -0.003 | inactive: -0.065 | inactive: 0.129 | inactive: 0.035 | – |
| DTYMK (UniProt P23919) | inactive: 0.076 | inactive: -0.003 | inactive: -0.02 | inactive: -0.056 | inactive: -0.178 | inactive: -0.029 | inactive: -0.013 | inactive: 0.039 | inactive: 0.084 | inactive: -0.001 | inactive: 0.05 | inactive: 0 | inactive: 0.015 | inactive: -0.009 | inactive: -0.017 | inactive: -0.069 | inactive: -0.1 | inactive: -0.007 | inactive: -0.011 | – |
| DNM2 (UniProt P50570) | inactive: 0.022 | inactive: 0.017 | inactive: -0.023 | inactive: -0.02 | inactive: -0.081 | inactive: -0.075 | inactive: 0.029 | inactive: -0.014 | inactive: 0.076 | inactive: -0.016 | inactive: -0.043 | inactive: 0.009 | inactive: 0.024 | inactive: -0.057 | inactive: 0.016 | inactive: 0.033 | inactive: -0.007 | inactive: 0.036 | inactive: 0.054 | – |
| DNAJC9 (UniProt Q8WXX5) | inactive: 0.009 | inactive: 0.008 | inactive: -0.017 | inactive: -0.035 | inactive: 0 | inactive: -0.032 | inactive: 0.022 | inactive: -0.051 | inactive: 0.007 | inactive: -0.01 | inactive: 0.009 | inactive: 0.003 | inactive: 0.006 | inactive: -0.021 | inactive: 0.001 | inactive: -0.002 | inactive: 0.018 | inactive: 0.017 | inactive: -0.014 | inactive: 0.035 |
| DNAJC21 isoform 3 (UniProt Q5F1R6) | inactive: -0.049 | inactive: -0.023 | inactive: -0.008 | inactive: 0.136 | inactive: 0.003 | inactive: -0.054 | inactive: 0.143 | inactive: 0.112 | inactive: -0.116 | inactive: 0.109 | inactive: -0.004 | inactive: -0.066 | inactive: -0.025 | inactive: 0.204 | inactive: 0.106 | inactive: 0.05 | inactive: -0.063 | inactive: 0.083 | inactive: 0.002 | inactive: -0.028 |
| DTL (UniProt Q9NZJ0) | inactive: -0.048 | inactive: -0.138 | inactive: -0.112 | inactive: 0.012 | inactive: -0.01 | inactive: -0.114 | inactive: -0.036 | inactive: -0.003 | inactive: 0.036 | inactive: -0.029 | inactive: -0.046 | inactive: 0.012 | inactive: -0.051 | inactive: 0.002 | inactive: -0.076 | inactive: -0.059 | inactive: 0.044 | inactive: -0.085 | inactive: -0.091 | inactive: -0.008 |
| ECI2 (UniProt O75521) | inactive: 0.056 | inactive: -0.021 | inactive: -0.025 | inactive: -0.051 | inactive: -0.028 | inactive: 0.07 | inactive: -0.045 | inactive: -0.019 | inactive: 0.03 | inactive: -0.015 | inactive: -0.026 | inactive: 0.01 | inactive: 0.014 | inactive: -0.006 | inactive: -0.01 | inactive: -0.01 | inactive: 0 | inactive: 0.022 | inactive: 0.021 | inactive: -0.028 |
| DTWD1 (UniProt Q8N5C7) | inactive: 0.043 | inactive: 0.014 | inactive: 0.076 | inactive: 0 | inactive: -0.022 | inactive: 0.161 | inactive: -0.021 | inactive: -0.026 | inactive: 0.136 | inactive: 0.05 | inactive: -0.042 | inactive: 0.023 | inactive: 0.081 | inactive: -0.072 | inactive: 0.115 | inactive: -0.013 | inactive: 0.036 | inactive: -0.172 | inactive: -0.027 | – |
| EDEM2 (UniProt Q9BV94) | inactive: 0.181 | inactive: -0.014 | inactive: -0.062 | inactive: -0.138 | inactive: -0.009 | inactive: -0.071 | inactive: 0.065 | inactive: -0.001 | inactive: 0.022 | inactive: -0.064 | inactive: -0.001 | inactive: -0.084 | inactive: -0.204 | inactive: 0.036 | inactive: -0.032 | inactive: -0.149 | inactive: 0.095 | inactive: 0.013 | inactive: 0.21 | – |
| DNTTIP2 (UniProt Q5QJE6) | inactive: -0.027 | inactive: 0.045 | inactive: -0.265 | inactive: 0.089 | inactive: 0.046 | inactive: -0.234 | inactive: 0.046 | inactive: 0.266 | active: -0.975 | inactive: 0.033 | inactive: 0.028 | inactive: -0.087 | inactive: -0.061 | inactive: 0.151 | inactive: -0.015 | inactive: -0.064 | inactive: -0.1 | inactive: 0.057 | inactive: -0.062 | – |
| DRG2 (UniProt P55039) | inactive: 0.02 | inactive: -0.014 | inactive: -0.013 | inactive: -0.013 | inactive: -0.037 | inactive: 0.006 | inactive: 0.011 | inactive: -0.044 | inactive: 0.045 | inactive: 0.001 | inactive: 0 | inactive: 0.027 | inactive: 0.039 | inactive: 0.004 | inactive: 0.014 | inactive: 0.048 | inactive: -0.054 | inactive: -0.041 | inactive: 0.033 | inactive: -0.034 |
| E2F4 (UniProt Q16254) | inactive: -0.025 | inactive: -0.009 | inactive: -0.073 | inactive: 0.011 | inactive: -0.072 | inactive: -0.167 | inactive: 0.038 | inactive: 0.001 | inactive: -0.119 | inactive: 0.031 | inactive: 0.011 | inactive: 0.087 | inactive: 0.079 | inactive: 0.034 | inactive: -0.001 | inactive: 0.02 | inactive: 0.021 | inactive: 0.05 | inactive: 0.054 | – |
| EBNA1BP2 (UniProt Q99848) | inactive: -0.143 | inactive: -0.013 | inactive: 0.013 | inactive: 0.27 | inactive: 0.124 | inactive: 0.213 | inactive: -0.026 | inactive: 0.439 | active: -1.4 | inactive: -0.014 | inactive: -0.033 | inactive: -0.07 | inactive: -0.153 | inactive: 0.438 | inactive: -0.042 | inactive: 0.004 | inactive: 0.113 | inactive: 0.174 | inactive: -0.187 | – |

Looked up above.
log2 fold change [10] with DNTTIP2 (UniProt Q5QJE6) is entered as inactive: -0.064
log2 fold change [1] with EDEM2 (UniProt Q9BV94) is entered as inactive: -0.062
